For part of these data: A negative result means that nothing was seen under these conditions. Tags and fusion partners may be left off the protein sequences shown. For part of these data: The exact form of at least one protein or probe is not confirmed.
Tests used:
[1] = target: T1, ORF6ΔC del179-199 (Enterobacter cancerogenus bacteriophage Enc34) (UniProt H6WYG2); assay: X-ray crystallography; details: 1.56 Å, protein:DNA 1:2, 0.1 M HEPES pH 7.0, 30% Jeffamine ED-2001; recombinant protein; residues 2-179; single-stranded DNA
T1 sequence (looked up): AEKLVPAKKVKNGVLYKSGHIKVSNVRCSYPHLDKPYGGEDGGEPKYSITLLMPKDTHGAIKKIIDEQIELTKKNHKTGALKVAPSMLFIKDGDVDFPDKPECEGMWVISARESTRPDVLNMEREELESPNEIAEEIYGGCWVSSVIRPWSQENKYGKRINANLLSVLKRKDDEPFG

[2] = target: T2, ORF6 (Enc34 SSB, DUF2815) (Enterobacter cancerogenus bacteriophage Enc34) (UniProt H6WYG2); assay: EMSA; details: DNA:protein 1:156 to 1:2500, EMSA: 5 uL of 140 nM DNA + 5 uL protein (two-fold dilutions from 350 uM stock), room temperature 20 min, 1% agarose, 1x TAE, recombinant protein, residues 2-200, probe letters rebuilt from the primers and the genome
T2 sequence (looked up): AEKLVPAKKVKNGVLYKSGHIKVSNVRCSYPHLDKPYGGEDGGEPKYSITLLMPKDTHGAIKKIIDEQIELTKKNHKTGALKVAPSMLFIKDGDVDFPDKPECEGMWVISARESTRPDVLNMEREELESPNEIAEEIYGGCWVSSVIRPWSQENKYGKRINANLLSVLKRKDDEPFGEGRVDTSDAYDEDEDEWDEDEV

TTTTTTTTTTTTTTTTTTTTTTTTTTTTTTTTTTT [(dT)35]
binding result [1]: binds

CTCACAAGGTATCTTAGAAACTATCGCGGCTAACCAGACTCGCATCATCACTCTGCTGGAAGGTCTGCAACTGAACGCCCCGGCATCTTCTGACGCTGGCGAAACCGCCACTACCAAAACCACCGCTAAAAAGAACACCAAGGCTAAAGCGGAAGAAAAGGTGAAGCCGACTCATACCAAAGATGAAGTCGTTGCAGCGGTAGTTGCGGTTAAAGACGCTTTCGGCGCTCCGGCAGCTAAAGCCATCACCGGACAATTCGGTCTTGCTAAAATCGCAGAAGCGAAAGAAGACCAGTTCGACGCTATCTTCGACGCATGTCAGGAAAAACTGGCAGAAGCGGATAACGACGCAGGCGAAGAAGAAGAAGTTTAATCGCCTAAACGGTATTGCGGCTCCCTCCGGGGGGCCGTTTTTCTCAGAGGTAGCTATGAAAAAATTTCCTAAATTCAGCGTTATGACGGCGGGCGGAATGATCCCTGTAGTCACTTTTTCTGAATTCAGCCGTAACATCGGCGGTCTTGAGGTTCTTTTCAGAGTTACTTCGCCACTCAGCCCAAGCGTTGGAGCGTTAGTGTTAACCCACGTCGAAACAACGCGGCTAGTCGGTAAGGTGGAGTTTCTAGACATCGCGAAGACACGCGATAGCCTATTCGTAAATAATTATGAAAAGGCCGGGAATAGAGTTTTGAACCGAATATTAAGGGACGTTGGAGATGATAGATTCGTCAAAGCCGTCAAAAGGTACTCGTAACTTAAGCAC (double strand) [~750 bp dsDNA fragment]
binding result [2]: no binding

CTCACAAGGTATCTTAGAAACTATCGCGGCTAACCAGACTCGCATCATCACTCTGCTGGAAGGTCTGCAACTGAACGCCCCGGCATCTTCTGACGCTGGCGAAACCGCCACTACCAAAACCACCGCTAAAAAGAACACCAAGGCTAAAGCGGAAGAAAAGGTGAAGCCGACTCATACCAAAGATGAAGTCGTTGCAGCGGTAGTTGCGGTTAAAGACGCTTTCGGCGCTCCGGCAGCTAAAGCCATCACCGGACAATTCGGTCTTGCTAAAATCGCAGAAGCGAAAGAAGACCAGTTCGACGCTATCTTCGACGCATGTCAGGAAAAACTGGCAGAAGCGGATAACGACGCAGGCGAAGAAGAAGAAGTTTAATCGCCTAAACGGTATTGCGGCTCCCTCCGGGGGGCCGTTTTTCTCAGAGGTAGCTATGAAAAAATTTCCTAAATTCAGCGTTATGACGGCGGGCGGAATGATCCCTGTAGTCACTTTTTCTGAATTCAGCCGTAACATCGGCGGTCTTGAGGTTCTTTTCAGAGTTACTTCGCCACTCAGCCCAAGCGTTGGAGCGTTAGTGTTAACCCACGTCGAAACAACGCGGCTAGTCGGTAAGGTGGAGTTTCTAGACATCGCGAAGACACGCGATAGCCTATTCGTAAATAATTATGAAAAGGCCGGGAATAGAGTTTTGAACCGAATATTAAGGGACGTTGGAGATGATAGATTCGTCAAAGCCGTCAAAAGGTACTCGTAACTTAAGCAC [~750 nt ssDNA fragment]
binding result ([2]; single-stranded DNA): binds
